Patent publication US6294372

System: Integration host factor (IHF, HimA/HimD heterodimer)
Assay: EMSA
Settings: 50 and 100 pmol IHF; 75 mM KCl, pH 8.0, 0 C; purified native protein; label: 32P

“AGATCTTTTACGCCGATTTGTAAGTGGTTGTTTTTTTAGTGTGTTTTTTATTTACCTGTCGCATCCAGGATGAAAAAACGTTGTCGCATCCTGGATGCGACAACACGCAACAAGGTGTTGCACAGATGTGTCATGATGGCTTAGATTTGAACCAACGTTAGTGCATGGGATTTTCAGAGGGAAAAAATCATGTTTATTGATTCAGAAAAACGA (double strand)”: binds.
